This passage reports binding results from doi:10.1101/2023.11.15.567291.

Amino acid sequences for entries named in this document (tags omitted). Residues count along the entry.
UniProt O95800: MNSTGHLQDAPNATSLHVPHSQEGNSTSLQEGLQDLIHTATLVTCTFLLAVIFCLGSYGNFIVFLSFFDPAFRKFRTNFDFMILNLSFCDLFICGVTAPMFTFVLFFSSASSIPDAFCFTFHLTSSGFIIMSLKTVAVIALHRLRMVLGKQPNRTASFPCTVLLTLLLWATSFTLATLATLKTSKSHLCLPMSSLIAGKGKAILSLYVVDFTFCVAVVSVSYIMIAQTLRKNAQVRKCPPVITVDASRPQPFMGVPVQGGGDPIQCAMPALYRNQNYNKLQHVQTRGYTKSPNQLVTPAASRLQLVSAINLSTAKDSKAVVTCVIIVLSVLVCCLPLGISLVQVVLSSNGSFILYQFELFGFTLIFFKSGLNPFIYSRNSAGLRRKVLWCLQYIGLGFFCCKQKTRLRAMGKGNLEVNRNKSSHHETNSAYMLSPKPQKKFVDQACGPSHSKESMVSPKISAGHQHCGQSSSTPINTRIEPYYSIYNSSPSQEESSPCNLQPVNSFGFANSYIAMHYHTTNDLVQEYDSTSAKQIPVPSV
UniProt P51681: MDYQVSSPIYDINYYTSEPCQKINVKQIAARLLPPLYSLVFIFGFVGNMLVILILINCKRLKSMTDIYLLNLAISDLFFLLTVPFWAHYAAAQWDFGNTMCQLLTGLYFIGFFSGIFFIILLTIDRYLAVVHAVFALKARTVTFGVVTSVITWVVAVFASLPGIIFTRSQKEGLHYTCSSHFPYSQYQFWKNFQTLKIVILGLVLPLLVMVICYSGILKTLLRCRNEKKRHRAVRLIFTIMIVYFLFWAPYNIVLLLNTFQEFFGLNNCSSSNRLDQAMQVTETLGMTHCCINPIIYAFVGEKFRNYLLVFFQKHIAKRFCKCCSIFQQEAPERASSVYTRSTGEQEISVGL
UniProt P13501, residues 24-91: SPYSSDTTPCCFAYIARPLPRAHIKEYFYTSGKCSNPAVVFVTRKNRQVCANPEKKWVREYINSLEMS
UniProt P51671, residues 24-97: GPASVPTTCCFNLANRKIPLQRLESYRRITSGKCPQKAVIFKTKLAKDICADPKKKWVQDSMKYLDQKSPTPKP

No constants are given. Whether binding was seen depends on the method and setting. Some results given as binding are weak or reduced against the parent protein; the word gives no strength.

Assay in all cases: ELISA
A general note: An ELISA detects its analyte on a solid surface through an enzyme-linked reagent.

Experiment [1] concerns the target human G protein-coupled receptor 75 (GPR75) on stably expressing HEK293T cells (human) (UniProt O95800).
Experiment [2] addresses T1, human C-C chemokine receptor 3 (CCR3) on stably expressing HEK293T cells (human) (UniProt P51677).
T1 sequence: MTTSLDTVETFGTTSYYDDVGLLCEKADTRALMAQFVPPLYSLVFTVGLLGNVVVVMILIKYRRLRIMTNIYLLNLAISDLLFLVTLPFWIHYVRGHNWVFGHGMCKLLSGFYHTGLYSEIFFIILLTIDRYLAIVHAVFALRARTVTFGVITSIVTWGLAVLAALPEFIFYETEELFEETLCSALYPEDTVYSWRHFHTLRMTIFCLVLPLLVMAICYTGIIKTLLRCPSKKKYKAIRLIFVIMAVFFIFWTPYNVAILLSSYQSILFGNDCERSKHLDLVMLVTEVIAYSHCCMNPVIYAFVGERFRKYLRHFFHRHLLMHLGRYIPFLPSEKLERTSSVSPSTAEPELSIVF

Experiment [3] deals with T2, human C-C chemokine receptor 1 (CCR1) on stably expressing HEK293T cells (human) (UniProt P32246).
T2 sequence: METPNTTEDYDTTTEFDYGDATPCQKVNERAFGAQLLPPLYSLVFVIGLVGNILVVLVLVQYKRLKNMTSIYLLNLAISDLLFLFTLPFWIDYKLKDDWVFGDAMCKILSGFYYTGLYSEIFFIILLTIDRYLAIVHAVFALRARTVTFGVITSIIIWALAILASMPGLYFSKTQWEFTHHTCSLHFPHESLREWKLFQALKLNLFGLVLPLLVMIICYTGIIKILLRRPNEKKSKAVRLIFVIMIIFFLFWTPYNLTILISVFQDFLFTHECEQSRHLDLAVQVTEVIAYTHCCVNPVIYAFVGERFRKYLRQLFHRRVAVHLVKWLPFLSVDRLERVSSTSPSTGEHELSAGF

Experiment [4] deals with human C-C chemokine receptor 5 (CCR5) on stably expressing HEK293T cells (human) (UniProt P51681).

Take “His-tagged recombinant human C-C chemokine ligand 5 (CCL5) (from UniProt P13501 24-91)”: the binding result in experiment [1], in experiment [2] and in experiment [3] was “binds” each time.

Consider “His-tagged recombinant human C-C chemokine ligand 11 (CCL11) (from UniProt P51671 24-97)”, for which, in experiment [4], the binding result was “binds”.
